# The campaign covered roughly 320,000 compounds. About 2,100 (0.66%) were called active. Inconclusive results, whose numbers are uncertain, are shown with a selection of clear calls. Calls follow the shape of the dose curve; as a rule, active = well fitted inhibition curve with a large enough effect in the signal ratio, with a control signal flat (not every such curve was filed as active); inconclusive = small, poorly fitted or top-dose-only effect, or effect the other way, or a change in a side signal; inactive = flat fitted curve, though single readings scatter; the % refers to the signal ratio. Where the call is inconclusive, the potency comes from a doubtful curve fit.
# Experiment: qHTS Assay for Lipid Storage Modulators in Drosophila S3 Cells
# Settings: BODIPY lipid droplet fluorescence, 18-24 h, cells fed with added oleic acid; lipid storage change, negative = inhibition: at 46.1 µM (top of the series) unless noted
# Summary of the method: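 Drosophila S3 cells got compounds at several concentrations plus oleic acid (400 uM solution). Laser-scanning cytometry with 488 nm excitation read lipid droplets at 500-530 nm and cells at 575-640 nm. Percent activity was relative to 20 uM Triacsin C.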
# % is scaled to controls: 0 for no effect and ±100 for the full control effect; potency is read from the fitted curve at half-maximal effect.
Structure (SMILES),"lipid storage change, negative = inhibition",Potency
CC/C(=N\NC(=O)CSc1ncccn1)c1ccc2c(c1)OCCO2,inconclusive: 4.75%,–
O=C(O)c1n[nH]c2c1CCCC2,inconclusive: 4.76%,–
Cc1ccccc1Cc1c(C)nc2nc(SCC(=O)NCCCN3CCCCC3)nn2c1C,–,"inconclusive: 0.461 µM [activator, partial curve]"
O=C(O)C1CCN(C(=O)c2csc(-c3ccc4c(c3)CCO4)n2)CC1,–,"inconclusive: 29.1 µM [cytotoxic, single point]"
CC(C)(C)Cc1nnc(NS(=O)(=O)c2ccccc2)s1,inactive,–
COc1cccc(CNC(=O)C2CCCN(c3ncnc4c3nc3n4CCCCC3)C2)c1 (stereo unspecified),inactive,–
COc1ccc(Cl)cc1S(=O)(=O)NC1CC(C)(C)NC(C)(C)C1,inconclusive: -44.4% [cytotoxic] [at 0.369 µM],–
O=C(O)CSc1nccc2ccccc12,inconclusive: 10.7%,–
CCn1c(COc2ccccc2C)nnc1SCC(=O)CC(=O)Nc1ccccc1,inconclusive: 17%,–
CC1CCCCC1NC(=O)CSc1nnc(CNC(=O)c2ccccc2)n1C (stereo unspecified),inconclusive: -7.58%,–
COc1ccc(Br)cc1CN(C)CC(=O)NCCc1ccccc1,inconclusive: -38.6%,–
O=C(NC1CCCCCC1)C1c2ccccc2C(=O)N1Cc1cccnc1 (stereo unspecified),inconclusive: 11.9%,–
COc1ccc2c(c1)C(C)=CC(C)(C)N2S(=O)(=O)c1ccc(NC(C)=O)cc1,–,"inconclusive: 18.4 µM [falling, single point]"
CCN1CCN(Cc2ccc(NC(=O)c3ccc(C)c(NC(=O)c4csc(-c5ccncc5)n4)c3)cc2C(F)(F)F)CC1,inconclusive: -15.7%,–
COc1ccc(-c2cn(-c3ccccc3)nc2CO)cc1,–,"inconclusive: 2.06 µM [activator, partial curve]"
Cc1ccc(S(=O)(=O)NNC(=O)C(O)(c2ccccc2C)c2ccccc2C)cc1,inconclusive: -8.73%,–
Cc1c(C(=O)/C=C/c2cccs2)oc2ccc(F)cc12,inconclusive: 109%,–
CCOc1ccc(N(CC(=O)Nc2cccc(C)c2)S(C)(=O)=O)cc1,inconclusive: 11.9%,–
COc1ccc2cc(C(=O)COC(=O)COc3ccc4c(C)cc(=O)oc4c3)ccc2c1,–,"inconclusive: 0.103 µM [rising, full curve, poor fit]"
Cc1ccc(CC2CC(=O)N(CCc3ccc4c(c3)OCO4)C2=O)cc1 (stereo unspecified),–,"inconclusive: 11.6 µM [rising, partial curve]"
O=C(NCC(=O)N1CCCC(C(F)(F)F)C1)c1ccco1 (stereo unspecified),–,"inconclusive: 10.3 µM [activator, partial curve, poor fit]"
CCCC(=O)Nc1ccc(NC(=O)CCc2ccccc2)cn1,inconclusive: 2.71%,–
Cc1ccc(NC(=O)CCNC(=O)c2ccco2)cc1F,inconclusive: 39.7%,–
O=C(Nc1cccc(O)c1)c1cc(-c2ccc3c(c2)OCO3)on1,inconclusive: 40.1%,–
CCc1ccc2c(c1)C(c1ccncc1)=NNC(c1ccccc1)=N2,inconclusive: 7.25%,–
Clc1ccc(-c2nnc3n2CCCCC3)cc1,inconclusive: -69.3%,–

Structure (SMILES),"lipid storage change, negative = inhibition",Potency
CCCn1c2c(c(O)c(C(=O)Nc3ccccn3)c1=O)CCCC2,inconclusive: 2.18%,–
CCOCc1nnc(NC(C)=O)s1,inconclusive: 127%,–
COc1ccc(CC(=O)NCc2ccc3c(c2)cc(C)n3C)cc1OC,inconclusive: 29.7%,–
CC1(C)NC(=O)N(CCOc2ccc3c(c2)CCC3)C1=O,inconclusive: -11.5%,–
COCCn1c(N)c(N(Cc2ccccc2)C(=O)c2ccc3ccccc3c2)c(=O)[nH]c1=O,inconclusive: 18.1%,–
CC(=O)c1cc2c(cc1NC(=O)c1ccc(Cl)cc1)OCCO2,inconclusive: -11.4%,–
Cc1cc(C)nc(NS(=O)(=O)c2ccc(NC(=O)Nc3ccccc3F)cc2)n1,inactive,–
CCN(CC(=O)NCc1ccc(Cl)cc1)C(=O)Cc1ccc(OC)cc1,–,"inconclusive: 20.6 µM [activator, partial curve]"
Cc1nc2c(o1)CCc1ccccc1C2N1CCN(C)CC1 (stereo unspecified),–,"inconclusive: 0.58 µM [falling, single point]"
O=c1oc2ccccc2c(NCCO)c1[N+](=O)[O-],inconclusive: -19.1%,–
O=C1CN(C(=O)C2CCCC2)CCN1,inconclusive: 31%,–
O=C(Nc1ncc(S(=O)(=O)c2ccc([N+](=O)[O-])cc2)s1)c1cccc2ccccc12,inconclusive: 5.01%,–
NC(=S)N/N=C1\CCOc2ccc(Cl)cc21,–,"inconclusive: 29.1 µM [cytotoxic, single point]"
COc1ccc(CNC(=O)[C@H](C)NC(=O)C2CCN(C(=O)[C@H](CCSC)NC(=O)OC(C)(C)C)CC2)cc1,inconclusive: -27.9%,–
Cc1ccc(NC(=O)c2ccc(CNc3c(N4CCOCC4)c(=O)c3=O)cc2)cc1,–,"inconclusive: 0.58 µM [falling, single point]"
COC(CN1C(=O)C(O)=C(C(C)=O)C1c1ccccn1)OC (stereo unspecified),inconclusive: 12.7%,–
COc1ccc(S(=O)(=O)NC(C)C(=O)NCc2ccncc2)cc1Cl (stereo unspecified),–,"inconclusive: 0.291 µM [activator, single point]"
CC(C)(CNC(=O)CNC(=O)c1ccccc1F)N1CCOCC1,–,"inconclusive: 6.51 µM [falling, single point]"
Cc1nc(SCc2ccc(F)cc2)c([N+](=O)[O-])[nH]1,inconclusive: 10.7%,–
COc1ccc(C(C)=O)cc1CSc1nc2ccccc2c(=O)n1-c1ccccc1,inconclusive: -22.6%,–
Cc1cc(C(=O)CN2C(=O)NC3(CCCCC3)C2=O)c(C)n1-c1ccc2c(c1)OCO2,inconclusive: 1.26%,–
O=C(CN1CCN(S(=O)(=O)c2ccccc2)CC1)NC(=O)NC1CCCCC1,inconclusive: 106%,–
Cc1ccc(S[C@@H](CCN2CC[C@H](C)CCC2=O)c2ccccc2)cc1,inconclusive: 17.7%,–
Cc1ccc(OC(=O)c2ccc(N3CCOCC3)c([N+](=O)[O-])c2)cc1,inconclusive: 104%,–
O=C(CSc1n[nH]c(=O)n1Cc1ccco1)Nc1ccccc1Cl,inconclusive: 15.9%,–

# Quoted from the listing:
# In lipid storage change, negative = inhibition, O=C(Nc1ncc(S(=O)(=O)c2ccc([N+](=O)[O-])cc2)s1)c1cccc2ccccc12 is listed with inconclusive: 5.01%
# In lipid storage change, negative = inhibition, O=C(O)c1n[nH]c2c1CCCC2 is listed with inconclusive: 4.76%

# Reference: PubChem BioAssay AID2685 (National Center for Advancing Translational Sciences (NCATS), 2010)
